# According to paper doi:10.1101/2020.05.13.093252:
# Amino acid sequences for entries named in this document (tags omitted). Residues count along the entry.
# UniProt P21803, residues 22-821: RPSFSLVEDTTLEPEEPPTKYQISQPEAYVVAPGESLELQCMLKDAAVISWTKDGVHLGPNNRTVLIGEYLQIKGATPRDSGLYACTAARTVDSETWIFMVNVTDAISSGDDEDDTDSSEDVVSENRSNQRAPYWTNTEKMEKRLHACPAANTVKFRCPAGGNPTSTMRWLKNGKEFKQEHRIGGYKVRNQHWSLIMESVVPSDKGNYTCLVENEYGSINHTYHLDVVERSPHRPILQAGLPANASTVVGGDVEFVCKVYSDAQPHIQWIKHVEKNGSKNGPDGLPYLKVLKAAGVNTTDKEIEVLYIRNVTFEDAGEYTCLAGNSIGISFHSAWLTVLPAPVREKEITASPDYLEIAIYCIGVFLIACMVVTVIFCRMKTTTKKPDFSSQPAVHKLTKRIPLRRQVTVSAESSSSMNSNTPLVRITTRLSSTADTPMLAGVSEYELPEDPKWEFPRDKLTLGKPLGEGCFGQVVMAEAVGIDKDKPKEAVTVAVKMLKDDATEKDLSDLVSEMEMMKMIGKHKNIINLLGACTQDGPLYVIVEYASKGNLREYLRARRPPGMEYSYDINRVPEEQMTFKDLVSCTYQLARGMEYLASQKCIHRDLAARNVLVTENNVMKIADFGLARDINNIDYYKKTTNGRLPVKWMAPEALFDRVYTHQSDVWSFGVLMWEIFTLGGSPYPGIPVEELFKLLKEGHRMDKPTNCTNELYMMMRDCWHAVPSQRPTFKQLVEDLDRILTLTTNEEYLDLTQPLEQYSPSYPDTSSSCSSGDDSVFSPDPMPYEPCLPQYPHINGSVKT
# These are yes or no findings as the source states them, for the method shown. In cells and extracts the contact can be indirect. Some results given as binding are weak or reduced against the parent protein; the word gives no strength.
# Target: FGFR2^WT-Flag3x (mouse FGFR2 isoform c, wild type, triple Flag tag) (mouse) (UniProt P21803)
# Assay: co-IP
binder,measurement,value
"FRS2 (protein, UniProt Q8C180 1-508) MGSCCSCPDKDTVPDNHRNKFKVINVDDDGNELGSGVMELTDTELILYTRKRDSVKWHYLCLRRYGYDSNLFSFESGRRCQTGQGIFAFKCARAEELFNMLQEIMQNNSINVVEEPVVERSSHQTELEVPRTPRTPTTPGLGAQNLPNGYPRYPSFGDASSHPSSRHPSVGSARLPSVGEESTHPLLVAEEQVHTYVNTTGVQEERKNRASVHVPPEARVSNAESNTPKEEPSNPEDRDPQVLLKPEGVRFVLGPTPVQKQLMEKEKLEQLGKDPVSGSGAGNTEWDTGYDSDERRDVPPVNKLVYENINGLSIPSASGVRRGRLTSTSTSDTQNINNSAQRRPALLNYENLPSLPPVWEARKLSRDEDDNLGPKTPSLNGYHNNLDPMHNYVNTENVTVPASAHKIDYSKRRDCTPTVFNFDIRRPSLEHRQLNYIQVDLEGGSDSDNPQTPKTPTTPLPQTPTRRTELYAVIDIERTAAMSNLQKALPRDDGTSRKTRHNSTDLPM",binding,binds
